In test [1] the target is T1, Flag tagged-TSPAN6 (human) (UniProt O43657).
T1 sequence: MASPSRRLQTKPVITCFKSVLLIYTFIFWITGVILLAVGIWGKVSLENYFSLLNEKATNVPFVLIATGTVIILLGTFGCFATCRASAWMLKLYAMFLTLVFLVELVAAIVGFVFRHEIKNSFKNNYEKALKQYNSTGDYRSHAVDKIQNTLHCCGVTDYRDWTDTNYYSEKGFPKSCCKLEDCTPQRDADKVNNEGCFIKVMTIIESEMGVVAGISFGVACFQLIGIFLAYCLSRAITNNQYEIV
In words: co-IP; PANC1 or MIA-PaCa2 cells overexpressing FLAG-TSPAN6 lysed in 1% Brij 98; IP with anti-FLAG or IgG control, immunoblot with anti-EGFR, anti-SCRIB, anti-DLG1 or anti-FLAG; conducted once.

Amino acid sequences for entries named in this document (tags omitted).
UniProt Q14160: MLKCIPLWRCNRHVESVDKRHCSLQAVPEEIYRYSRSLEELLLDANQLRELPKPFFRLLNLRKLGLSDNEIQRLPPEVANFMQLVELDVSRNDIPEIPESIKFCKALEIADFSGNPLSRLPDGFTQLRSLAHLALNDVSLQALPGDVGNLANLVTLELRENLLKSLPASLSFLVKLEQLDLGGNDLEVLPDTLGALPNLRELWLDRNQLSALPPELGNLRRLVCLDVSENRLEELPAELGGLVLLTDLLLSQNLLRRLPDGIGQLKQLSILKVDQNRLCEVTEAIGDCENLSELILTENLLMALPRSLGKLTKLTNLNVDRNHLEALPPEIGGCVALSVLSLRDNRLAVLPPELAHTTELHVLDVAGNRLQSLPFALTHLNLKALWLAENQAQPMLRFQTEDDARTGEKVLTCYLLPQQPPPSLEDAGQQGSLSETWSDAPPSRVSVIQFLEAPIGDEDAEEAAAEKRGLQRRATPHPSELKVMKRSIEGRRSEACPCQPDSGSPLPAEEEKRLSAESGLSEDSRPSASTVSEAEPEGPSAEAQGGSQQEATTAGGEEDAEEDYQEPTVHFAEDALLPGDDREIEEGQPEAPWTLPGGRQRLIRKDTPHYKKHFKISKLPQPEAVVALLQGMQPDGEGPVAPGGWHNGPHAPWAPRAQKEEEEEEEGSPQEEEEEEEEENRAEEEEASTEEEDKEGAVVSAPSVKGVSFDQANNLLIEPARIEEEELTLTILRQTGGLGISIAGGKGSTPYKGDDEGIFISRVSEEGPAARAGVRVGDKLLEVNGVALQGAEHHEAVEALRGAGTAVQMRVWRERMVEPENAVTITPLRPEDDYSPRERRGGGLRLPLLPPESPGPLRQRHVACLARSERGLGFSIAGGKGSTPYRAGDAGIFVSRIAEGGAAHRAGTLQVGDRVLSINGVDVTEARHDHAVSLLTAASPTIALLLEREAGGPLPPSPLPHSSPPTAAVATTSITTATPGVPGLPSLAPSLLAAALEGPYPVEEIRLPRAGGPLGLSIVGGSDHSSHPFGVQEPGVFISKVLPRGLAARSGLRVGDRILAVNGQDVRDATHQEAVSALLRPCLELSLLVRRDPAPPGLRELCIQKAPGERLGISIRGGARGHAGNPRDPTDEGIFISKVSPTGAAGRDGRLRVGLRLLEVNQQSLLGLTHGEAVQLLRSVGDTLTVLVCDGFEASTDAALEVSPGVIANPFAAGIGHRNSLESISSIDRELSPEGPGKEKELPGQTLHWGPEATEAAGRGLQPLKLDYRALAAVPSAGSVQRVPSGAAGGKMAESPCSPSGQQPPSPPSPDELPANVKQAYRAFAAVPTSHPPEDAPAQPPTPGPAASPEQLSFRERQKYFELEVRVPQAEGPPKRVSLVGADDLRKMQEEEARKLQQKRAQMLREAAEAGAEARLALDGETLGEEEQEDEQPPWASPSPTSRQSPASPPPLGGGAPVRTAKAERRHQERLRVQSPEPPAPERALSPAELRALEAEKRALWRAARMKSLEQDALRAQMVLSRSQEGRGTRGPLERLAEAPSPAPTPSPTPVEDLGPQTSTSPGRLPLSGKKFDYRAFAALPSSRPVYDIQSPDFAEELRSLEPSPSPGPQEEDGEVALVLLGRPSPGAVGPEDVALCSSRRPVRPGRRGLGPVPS

For test [2], the target named is EGFR (endogenous) (human (endogenous in PANC1 and MIA PaCa2)) (UniProt P00533). In words: co-IP; PANC1 or MIA-PaCa2 cells lysed in 1% Brij 98 (mild stringency); IP with anti-EGFR or IgG control, immunoblot with anti-TSPAN6 or anti-EGFR.

No constants are given. Whether binding was seen depends on the method and setting. Binding seen in cells or lysates may run through a third protein. Some results given as binding are weak or reduced against the parent protein; the word gives no strength. For part of these data: Where a sequence is shown, tags or fusion partners need not be part of it.

Take “EGFR (endogenous) (from UniProt P00533 25-1210) (receptor)”: in test [1], the binding entry is given as “binds”. As to “SCRIB (endogenous) (from UniProt Q14160 1-1655)”, the binding entry in test [1] is on record as “no binding”.

B1: TSPAN6 (endogenous) (protein, UniProt O43657 1-245)
chain: T1 sequence
Take B1: in test [2], the binding entry was “binds”.
